The list is a part of this screen's results and no random one: it is rich in T/C values a quarter to a half above the control, in often repeated tests (any T/C) and in doses without a T/C. Further doses and runs are listed elsewhere. T/C: endpoint of the treated group in % of that of the vehicle group. Some entries give survivors of the animals treated and no T/C: the source holds a T/C of zero for them, seemingly a mark for toxic or unscored doses. Some survivor counts are full or nearly so, which does not show that the dose was tolerated: survival well below the control is almost never listed, so the zero probably covers shortened survival too. Counts of survivors are from the toxicity check (mostly the fifth day) where no day follows; animals may have died later. Schedule codes are those of the source, read here as Q, the interval in days (D) or hours (H), X, the number of doses. Some entries were tested several times; their values stand side by side, smallest first. Brackets with × stand for listed records that agree. Some schedule codes hold Z or #, which are not explained here. Where survival is the endpoint, this PubChem deposit counts one and a half times the control or more as active, and values a quarter to a half above the control carry no call in these data; other NCI protocols may use other cut-offs. Some T/C values carry the count of animals alive at the toxicity check (mostly the fifth day); where none is given, no animal had died by that day.
Test system: B6C3F1 mice, intracerebral ependymoblastoma, median survival T/C
Assay: NCI In Vivo Anticancer Drug Screen. Data for tumor model Ependymoblastoma (intracerebral) in B6C3F1 mice
Settings: T/C endpoint: median survival time, higher T/C = longer survival
Method: The antitumor activity of compounds was measured in mice bearing transplantable tumors. Survival or tumor size were measured and the results are expressed as the measurement made in the treated group (T) divided by the measurement made in the vehicle treated control group (C). The tumor model used in this assay is Ependymoblastoma (intracerebral) in B6C3F1 mice

[1] = dose: 64.0 mg/kg/injection, schedule: Q01DX005 (ip), vehicle: saline with Tween-80
[2] = dose: 512.0 mg/kg/injection, schedule: Q01DX005 (ip), vehicle: saline with Tween-80
[3] = dose: 16.0 mg/kg/injection, schedule: Q01DX005 (ip), vehicle: saline
[4] = dose: 32.0 mg/kg/injection, schedule: Q01DX005 (ip), vehicle: saline with Tween-80

SMILES: C1CN(P2(N3CC3)=NP(N3CC3)(N3CC3)=NP(N3CC3)(N3CC3)=N2)CCO1 (configuration not stated)
- survivor count (dose: 160.0 mg/kg/injection, schedule: Q01DX001 (ip), vehicle: saline): 9 of 10
- survivor count (dose: 320.0 mg/kg/injection, schedule: Q01DX001 (ip), vehicle: saline): 9 of 10

SMILES: CCCCN(C)N=Nc1ccc([N+](=O)[O-])cc1C(N)=O
- T/C [1]: 141 % of control
- survivor count [2]: 7 of 10

SMILES: Nc1nc([Se])c2ncn(C3OC(CO)C(O)C3O)c2n1 (configuration not stated)
- T/C (dose: 16.0 mg/kg/injection, schedule: Q01DX005 (ip), vehicle: saline with Tween-80): 129 % of control
- T/C [3]: 127 % of control
- T/C [4]: 129 % of control [9 of 10 alive]
- T/C (dose: 32.0 mg/kg/injection, schedule: Q01DX005 (ip), vehicle: saline): 125 % of control [9 of 10 alive]
- survivor count (dose: 64.0 mg/kg/injection, schedule: Q01DX005 (ip), vehicle: Klucel (hydroxypropylcellulose) (HPC)): 10 of 10
- survivor count [1]: 5 of 10
- survivor count (dose: 64.0 mg/kg/injection, schedule: Q01DX005 (ip), vehicle: saline): 2 of 10 and 7 of 10 (2×)
- survivor count (dose: 128.0 mg/kg/injection, schedule: Q01DX005 (ip), vehicle: Klucel (hydroxypropylcellulose) (HPC)): 0 of 10
- survivor count (dose: 128.0 mg/kg/injection, schedule: Q01DX005 (ip), vehicle: saline): 0 of 10 (2×)

SMILES: CN(C)/N=N/c1[nH]ncc1C(N)=O
- T/C [3]: 134 % of control
- T/C [4]: 139 % of control
- T/C [1]: 142 % of control
- survivor count (dose: 256.0 mg/kg/injection, schedule: Q01DX005 (ip), vehicle: saline with Tween-80): 10 of 10
- survivor count [2]: 9 of 10

SMILES: OCC1OC(n2cnc3c2NC=NC[C@H]3O)CC1O (some centres not stated)
- survivor count (dose: 0.5 mg/kg/injection, schedule: Q12HX010 (ip), vehicle: saline): 10 of 10
- survivor count (dose: 0.5 mg/kg/injection, schedule: Q#ADX018 (ip), vehicle: saline): 10 of 10
- T/C (dose: 1.0 mg/kg/injection, schedule: Q01DX005 (ip), vehicle: saline, evaluated on day 30): 106 % of control
- T/C (dose: 1.0 mg/kg/injection, schedule: Q01DX005 (ip), vehicle: saline, evaluated on day 60): 96, 103, 108 (2×), 109 % of control [9 of 10 alive]
- survivor count (dose: 1.0 mg/kg/injection, schedule: Q01DX009 (ip), vehicle: saline): 10 of 10
- survivor count (dose: 1.0 mg/kg/injection, schedule: Q12HX010 (ip), vehicle: saline): 10 of 10
- survivor count (dose: 1.0 mg/kg/injection, schedule: Q#A X010 (ip), vehicle: saline): 9 of 10
- survivor count (dose: 1.0 mg/kg/injection, schedule: Q#ADX018 (ip), vehicle: saline): 10 of 10
- T/C (dose: 2.0 mg/kg/injection, schedule: Q01DX005 (ip), vehicle: saline, evaluated on day 30): 86 % of control
- T/C (dose: 2.0 mg/kg/injection, schedule: Q01DX005 (ip), vehicle: saline, evaluated on day 60): 99 [9 of 10 alive], 103, 104, 107 % of control
- survivor count (dose: 2.0 mg/kg/injection, schedule: Q01DX005 (ip), vehicle: saline): 10 of 10
- survivor count (dose: 2.0 mg/kg/injection, schedule: Q01DX009 (ip), vehicle: saline): 10 of 10
- survivor count (dose: 2.0 mg/kg/injection, schedule: Q12HX010 (ip), vehicle: saline): 9 of 10
- survivor count (dose: 2.0 mg/kg/injection, schedule: Q#A X010 (ip), vehicle: saline): 10 of 10
- survivor count (dose: 4.0 mg/kg/injection, schedule: Q01DX005 (ip), vehicle: saline): 9 of 10 (2×) and 10 of 10 (3×)
- survivor count (dose: 4.0 mg/kg/injection, schedule: Q01DX009 (ip), vehicle: saline): 10 of 10
- survivor count (dose: 4.0 mg/kg/injection, schedule: Q12HX010 (ip), vehicle: saline): 7 of 10
- survivor count (dose: 4.0 mg/kg/injection, schedule: Q#A X010 (ip), vehicle: saline): 8 of 10
- survivor count (dose: 8.0 mg/kg/injection, schedule: Q01DX005 (ip), vehicle: saline): 9 of 10 (2×) and 10 of 10 (2×)
- survivor count (dose: 8.0 mg/kg/injection, schedule: Q01DX009 (ip), vehicle: saline): 10 of 10
- survivor count (dose: 8.0 mg/kg/injection, schedule: Q12HX010 (ip), vehicle: saline): 7 of 10
- survivor count (dose: 8.0 mg/kg/injection, schedule: Q#A X010 (ip), vehicle: saline): 5 of 10
- survivor count [3]: 7 of 10 and 9 of 10 (2×)

SMILES: Cc1nc(N)nc(N)c1-c1ccc(Cl)c(Cl)c1
- T/C (dose: 1.25 mg/kg/injection, schedule: Q01DX005 (ip), vehicle: saline): 127 % of control
- T/C (dose: 2.5 mg/kg/injection, schedule: Q01DX005 (ip), vehicle: saline): 138 % of control [9 of 10 alive]
- survivor count (dose: 5.0 mg/kg/injection, schedule: Q01DX005 (ip), vehicle: saline): 10 of 10
- survivor count (dose: 10.0 mg/kg/injection, schedule: Q01DX005 (ip), vehicle: saline): 9 of 10 and 10 of 10
- survivor count (dose: 20.0 mg/kg/injection, schedule: Q01DX005 (ip), vehicle: saline): 10 of 10
- survivor count (dose: 40.0 mg/kg/injection, schedule: Q01DX005 (ip), vehicle: saline): 8 of 10 and 9 of 10

SMILES: COC(=O)[C@@]12OC[C@]34[C@H]([C@@H](O)[C@@H]1O)[C@@]1(C)CC(=O)C(O)=C(C)[C@@H]1C[C@H]3OC(=O)[C@H](OC(=O)/C=C(\C)C(C)C)[C@@H]24
- survivor count (dose: 0.25 mg/kg/injection, schedule: Q01DX005 (oral), vehicle: saline): 8 of 10
- survivor count (dose: 2.0 mg/kg/injection, schedule: Q01DX001 (ip), vehicle: saline): 3 of 10
- survivor count (dose: 2.0 mg/kg/injection, schedule: Q01DX005 (ip), vehicle: saline + alcohol): 8 of 10
- survivor count (dose: 2.0 mg/kg/injection, schedule: Q12HX006 (ip), vehicle: saline): 0 of 10
- survivor count (dose: 4.0 mg/kg/injection, schedule: Q01DX001 (ip), vehicle: saline): 1 of 10 and 3 of 10
- survivor count (dose: 4.0 mg/kg/injection, schedule: Q01DX005 (oral), vehicle: saline): 7 of 10
- survivor count (dose: 8.0 mg/kg/injection, schedule: Q01DX001 (ip), vehicle: saline): 0 of 10
- survivor count (dose: 8.0 mg/kg/injection, schedule: Q01DX005 (oral), vehicle: saline): 3 of 10
- survivor count (dose: 16.0 mg/kg/injection, schedule: Q01DX001 (oral), vehicle: saline): 2 of 10 and 4 of 10
- survivor count (dose: 32.0 mg/kg/injection, schedule: Q01DX001 (oral), vehicle: saline): 0 of 10

Source: PubChem BioAssay AID226 (DTP/NCI, 2004)
